Not every entry of the source has a single result; some have several. This list holds those alone. There may be further records. The values listed for one entry do not match, cause unknown; they may come from other doses, times, organisms or constructs than stated.
Tested on: 15-PGDH protein
Experiment: Western blot of 15-PGDH protein levels in treated cell lines
Format: cell-based
Conditions: western blot / immuno-fluorescence

SMILES: COc1ccc(-c2cc(C(F)(F)F)n3nc(C(=O)N4CCCCC4)cc3n2)cc1
- 15-PGDH protein levels in colon cell lines: increases 15-PGDH protein levels and increase in 15-PGDH protein levels

Source: patent publication US10869871B2, “Compositions and methods of modulating short-chain dehydrogenase activity” (CASE WESTERN RESERVE UNIVERSITY, priority 2013, dated 2020)
